Assay results: patent publication US11780893B2, “Kv1.3 blockers” (Zealand Pharma A/S, priority 2019, dated 2023)
Some results were stated once for a whole list of compounds, not compound by compound. Bridge positions count the residues as written; N and C are the ends. Square brackets hold non-standard residues; d marks the D form. Peptide text beside a SMILES is read from it. Nle = CCCC[C@H](N)C(=O)O

The chains behind the UniProt entries cited, without tags or fusion partners.
UniProt P22001, whole entry: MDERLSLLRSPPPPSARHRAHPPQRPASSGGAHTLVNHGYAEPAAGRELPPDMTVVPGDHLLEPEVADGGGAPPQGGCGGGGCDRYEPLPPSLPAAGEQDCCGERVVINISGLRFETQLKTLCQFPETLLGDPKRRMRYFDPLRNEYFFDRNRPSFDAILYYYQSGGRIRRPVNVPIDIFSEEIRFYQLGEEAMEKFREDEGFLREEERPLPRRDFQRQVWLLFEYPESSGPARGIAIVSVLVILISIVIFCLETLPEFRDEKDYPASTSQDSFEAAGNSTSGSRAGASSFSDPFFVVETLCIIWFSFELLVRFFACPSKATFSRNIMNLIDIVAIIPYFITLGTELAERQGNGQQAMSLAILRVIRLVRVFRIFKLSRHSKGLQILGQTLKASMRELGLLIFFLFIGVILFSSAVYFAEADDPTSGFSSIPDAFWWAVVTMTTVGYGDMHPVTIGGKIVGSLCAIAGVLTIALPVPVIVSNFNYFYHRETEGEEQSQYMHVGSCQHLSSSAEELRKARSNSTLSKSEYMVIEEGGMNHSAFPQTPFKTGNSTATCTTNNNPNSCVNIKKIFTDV
UniProt Q09470, whole entry: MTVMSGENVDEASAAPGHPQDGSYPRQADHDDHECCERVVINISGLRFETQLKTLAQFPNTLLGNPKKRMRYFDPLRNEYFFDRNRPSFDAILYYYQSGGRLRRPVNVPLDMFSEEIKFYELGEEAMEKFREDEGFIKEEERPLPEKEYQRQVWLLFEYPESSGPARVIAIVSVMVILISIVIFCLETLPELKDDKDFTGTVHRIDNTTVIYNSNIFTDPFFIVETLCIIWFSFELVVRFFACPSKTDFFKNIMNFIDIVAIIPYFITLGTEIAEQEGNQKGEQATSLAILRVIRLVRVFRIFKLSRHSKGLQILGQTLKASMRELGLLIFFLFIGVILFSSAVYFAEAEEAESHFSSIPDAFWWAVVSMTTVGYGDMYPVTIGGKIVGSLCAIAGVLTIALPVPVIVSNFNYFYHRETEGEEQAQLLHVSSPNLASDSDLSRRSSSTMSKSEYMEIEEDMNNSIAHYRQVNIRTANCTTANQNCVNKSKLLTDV
UniProt P17658, whole entry: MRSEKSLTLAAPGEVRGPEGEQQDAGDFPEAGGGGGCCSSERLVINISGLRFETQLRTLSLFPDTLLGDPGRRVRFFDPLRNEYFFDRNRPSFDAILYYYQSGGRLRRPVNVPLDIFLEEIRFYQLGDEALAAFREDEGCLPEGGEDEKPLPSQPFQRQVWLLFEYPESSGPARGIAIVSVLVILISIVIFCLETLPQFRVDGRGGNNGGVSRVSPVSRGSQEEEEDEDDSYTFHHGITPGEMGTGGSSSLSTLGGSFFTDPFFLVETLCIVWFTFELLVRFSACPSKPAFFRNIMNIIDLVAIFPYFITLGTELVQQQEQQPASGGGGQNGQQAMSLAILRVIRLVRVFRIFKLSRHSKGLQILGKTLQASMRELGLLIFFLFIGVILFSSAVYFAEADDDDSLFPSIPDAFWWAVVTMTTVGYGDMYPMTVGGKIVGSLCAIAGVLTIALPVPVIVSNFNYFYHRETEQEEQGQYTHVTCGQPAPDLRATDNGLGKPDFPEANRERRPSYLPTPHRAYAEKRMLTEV

What was measured:
Type in all cases: cell-based
[1] = molecular target: T1, human Kv1.3 voltage-gated K+ channel (Homo sapiens, UniProt P22001)
T1 construct: host or cells: CHO-DUKX

Kv1.1 = molecular target: T2, Kv1.1 (Homo sapiens, UniProt Q09470)
T2 construct: expressed in transfected cells; host or cells: Chinese Hamster Ovary (CHO)

Kv1.6 = molecular target: T3, Kv1.6 (Homo sapiens, UniProt P17658)
T3 construct: expressed in transfected cells; host or cells: Chinese Hamster Ovary (CHO)

SMILES | IC50 [1] | Selectivity Kv1.1/Kv1.3 (Kv1.1) | Selectivity Kv1.6/Kv1.3 (Kv1.6)
CC[C@H](C)[C@@H]1NC(=O)[C@H](C)NC(=O)[C@H](CCCCN)NC(=O)[C@H](CC(C)C)NC(=O)[C@@H]2CSSC[C@@H](C(=O)N[C@@H](Cc3ccc(O)cc3)C(=O)N3CCC[C@H]3C(=O)N[C@@H](CCCNC(=N)N)C(N)=O)NC(=O)[C@H](CCCCN)NC(=O)[C@@H]3CSSC[C@H](NC(=O)[C@H](CCC(=O)O)NC(=O)[C@H](C(C)C)NC(=O)[C@H](CO)NC(=O)[C@H](C)NC(=O)[C@H](CO)NC(=O)[C@@H](NC(=O)[C@H](CCCNC(=N)N)NC(=O)[C@H](CCSC)NC(=O)[C@H](CC(=O)O)NC(=O)[C@H](CCSC)NC(=O)[C@@H](N)CC(N)=O)CSSC[C@H](NC(=O)[C@H](CCCCN)NC(=O)CNC(=O)[C@H](Cc4ccccc4)NC(=O)[C@H]([C@@H](C)CC)NC(=O)[C@H](CO)NC(=O)CNC1=O)C(=O)N[C@@H](CCSC)C(=O)N[C@@H](CC(N)=O)C(=O)N[C@@H](CCCCN)C(=O)N[C@@H](CCCCN)C(=O)N3)C(=O)N[C@@H](CC(C)C)C(=O)N[C@@H](CCC(N)=O)C(=O)N[C@@H](CCCCN)C(=O)N2 [Compound 29] (H-NMDMRCSASVECLQKCLKAIGSIFGKCMNKKCKCYPR-NH2; disulfide 6-27, 12-32, 16-34) | ≤ 0.3 nM | at least 1000 | at least 400
CC[C@H](C)[C@@H]1NC(=O)[C@H](C)NC(=O)[C@H](CCCCN)NC(=O)[C@H](CC(C)C)NC(=O)[C@@H]2CSSC[C@@H](C(=O)N[C@@H](Cc3ccc(O)cc3)C(=O)N3CCC[C@H]3C(=O)N[C@@H](CCCNC(=N)N)C(N)=O)NC(=O)[C@H](CCCCN)NC(=O)[C@@H]3CSSC[C@H](NC(=O)[C@H](CCC(=O)O)NC(=O)[C@H](C(C)C)NC(=O)[C@H](CO)NC(=O)[C@H](C)NC(=O)[C@H](CO)NC(=O)[C@@H](NC(=O)[C@H](CCCNC(=N)N)NC(=O)[C@H](CCSC)NC(=O)[C@H](CC(=O)O)NC(=O)[C@H](CCSC)NC(=O)[C@@H](N)CC(N)=O)CSSC[C@H](NC(=O)[C@H](CCCCN)NC(=O)CNC(=O)[C@H](Cc4ccccc4)NC(=O)[C@H]([C@@H](C)CC)NC(=O)[C@H](CO)NC(=O)CNC1=O)C(=O)N[C@@H](CCSC)C(=O)N[C@@H](CC(N)=O)C(=O)NCC(=O)N[C@@H](CCCCN)C(=O)N3)C(=O)N[C@@H](CCCCN)C(=O)N[C@@H](CCC(N)=O)C(=O)N[C@@H](CCCCN)C(=O)N2 [Compound 36] (H-NMDMRCSASVECKQKCLKAIGSIFGKCMNGKCKCYPR-NH2; disulfide 6-27, 12-32, 16-34) | ≤ 0.3 nM | at least 1000 | at least 400
CCCC[C@@H]1NC(=O)[C@@H]2CSSC[C@H](NC(=O)[C@H](CCCNC(=N)N)NC(=O)[C@H](CCCC)NC(=O)[C@H](CO)NC(=O)[C@H](CCCC)NC(=O)[C@@H](N)CC(N)=O)C(=O)N[C@@H](CO)C(=O)N[C@@H](C)C(=O)N[C@@H](CO)C(=O)N[C@@H](C(C)C)C(=O)N[C@@H](CCC(=O)O)C(=O)N[C@H]3CSSC[C@H](NC(=O)[C@H](CCCCN)NC(=O)[C@H](CCCCN)NC(=O)[C@H](CC(N)=O)NC1=O)C(=O)N[C@@H](CCCCN)C(=O)N[C@H](C(=O)N[C@@H](Cc1ccc(O)cc1)C(=O)N1CCC[C@H]1C(=O)N[C@@H](CCCNC(=N)N)C(N)=O)CSSC[C@H](NC(=O)[C@H](CCCCN)NC(=O)[C@H](CCC(N)=O)NC(=O)[C@H](CCCCN)NC3=O)C(=O)N[C@@H](CC(C)C)C(=O)N[C@@H](CCCCN)C(=O)N[C@@H](C)C(=O)N[C@@H]([C@@H](C)CC)C(=O)NCC(=O)N[C@@H](CO)C(=O)N[C@@H]([C@@H](C)CC)C(=O)N[C@@H](Cc1ccccc1)C(=O)NCC(=O)N[C@@H](CCCCN)C(=O)N2 [Compound 46] (H-N[Nle]S[Nle]RCSASVECKQKCLKAIGSIFGKC[Nle]NKKCKCYPR-NH2; disulfide 6-27, 12-32, 16-34) | ≤ 0.15 nM | at least 1000 | at least 400
CCCC[C@@H]1NC(=O)[C@@H]2CSSC[C@H](NC(=O)[C@H](CCCNC(=N)N)NC(=O)[C@H](CCCC)NC(=O)[C@H](CC(=O)O)NC(=O)[C@H](CCCC)NC(=O)[C@@H](N)CC(N)=O)C(=O)N[C@@H](CO)C(=O)N[C@@H](Cc3c[nH]cn3)C(=O)N[C@@H](CO)C(=O)N[C@@H](C(C)C)C(=O)N[C@@H](CCC(=O)O)C(=O)N[C@H]3CSSC[C@H](NC(=O)[C@H](CCCCN)NC(=O)[C@H](CCCCN)NC(=O)[C@H](CC(N)=O)NC1=O)C(=O)N[C@@H](CCCCN)C(=O)N[C@H](C(=O)N[C@@H](Cc1ccc(O)cc1)C(=O)N1CCC[C@H]1C(=O)N[C@@H](CCCNC(=N)N)C(N)=O)CSSC[C@H](NC(=O)[C@H](CCCCN)NC(=O)[C@H](CCC(N)=O)NC(=O)[C@H](CCCCN)NC3=O)C(=O)N[C@@H](CC(C)C)C(=O)N[C@@H](CCCCN)C(=O)N[C@@H](C)C(=O)N[C@@H]([C@@H](C)CC)C(=O)NCC(=O)N[C@@H](CO)C(=O)N[C@@H]([C@@H](C)CC)C(=O)N[C@@H](Cc1ccccc1)C(=O)NCC(=O)N[C@@H](CCCCN)C(=O)N2 [Compound 47] (H-N[Nle]D[Nle]RCSHSVECKQKCLKAIGSIFGKC[Nle]NKKCKCYPR-NH2; disulfide 6-27, 12-32, 16-34) | ≤ 0.15 nM | at least 1000 | at least 400
CCCC[C@@H]1NC(=O)[C@@H]2CSSC[C@H](NC(=O)[C@H](CCCNC(=N)N)NC(=O)[C@H](CCCC)NC(=O)[C@H](CC(=O)O)NC(=O)[C@H](CCCC)NC(=O)[C@@H](N)CC(N)=O)C(=O)N[C@@H](CO)C(=O)N[C@@H](C)C(=O)N[C@@H](CO)C(=O)N[C@@H](C(C)C)C(=O)N[C@@H](CCC(=O)O)C(=O)N[C@H]3CSSC[C@H](NC(=O)[C@H](CCCCN)NC(=O)[C@H](CCCCN)NC(=O)[C@H](CC(N)=O)NC1=O)C(=O)N[C@@H](CCCCN)C(=O)N[C@H](C(=O)N[C@@H](Cc1ccc(O)cc1)C(=O)N1CCC[C@H]1C(=O)N[C@@H](CCCNC(=N)N)C(N)=O)CSSC[C@H](NC(=O)[C@H](CO)NC(=O)[C@H](CCC(N)=O)NC(=O)[C@H](CCCCN)NC3=O)C(=O)N[C@@H](CC(C)C)C(=O)N[C@@H](CCCCN)C(=O)N[C@@H](C)C(=O)N[C@@H]([C@@H](C)CC)C(=O)NCC(=O)N[C@@H](CO)C(=O)N[C@@H]([C@@H](C)CC)C(=O)N[C@@H](Cc1ccccc1)C(=O)NCC(=O)N[C@@H](CCCCN)C(=O)N2 [Compound 48] (H-N[Nle]D[Nle]RCSASVECKQSCLKAIGSIFGKC[Nle]NKKCKCYPR-NH2; disulfide 6-27, 12-32, 16-34) | ≤ 0.15 nM | at least 1000 | at least 400
CCCC[C@H](NC(=O)[C@@H]1CCCN1)C(=O)N[C@@H](CC(=O)O)C(=O)N[C@@H](CCCC)C(=O)N[C@@H](CCCNC(=N)N)C(=O)N[C@H]1CSSC[C@@H]2NC(=O)[C@H](CCCCN)NC(=O)CNC(=O)[C@H](Cc3ccccc3)NC(=O)[C@H]([C@@H](C)CC)NC(=O)[C@@H]3CSSC[C@@H](C(N)=O)NC(=O)[C@@H]4CCCN4C(=O)[C@H](Cc4ccc(O)cc4)NC(=O)[C@@H]4CSSC[C@H](NC(=O)[C@H](CCCCN)NC(=O)[C@H](CCC(N)=O)NC(=O)[C@H](CCCCN)NC(=O)[C@H](CSSC[C@H](NC(=O)[C@H](CCCCN)NC(=O)[C@H](CCCCN)NC(=O)[C@H](CC(N)=O)NC(=O)[C@H](CCCC)NC2=O)C(=O)N[C@@H](CCCCN)C(=O)N4)NC(=O)[C@H](CCC(=O)O)NC(=O)[C@H](C(C)C)NC(=O)[C@H](CO)NC(=O)[C@H](C)NC(=O)[C@H](CO)NC1=O)C(=O)N[C@@H](CC(C)C)C(=O)N[C@@H](CCCCN)C(=O)N[C@@H](C)C(=O)N[C@@H]([C@@H](C)CC)C(=O)NCC(=O)N3 [Compound 83] (H-P[Nle]D[Nle]RCSASVECKQKCLKAIGCIFGKC[Nle]NKKCKCYPC-NH2; disulfide 6-27, 12-32, 16-34, 22-37) | ≤ 0.15 nM | at least 1000 | at least 400
CCCC[C@H](NC(=O)[C@@H]1CCCN1)C(=O)N[C@@H](CCC(=O)O)C(=O)N[C@@H](CCCC)C(=O)N[C@@H](CCCNC(=N)N)C(=O)N[C@H]1CSSC[C@@H]2NC(=O)[C@H](CCCCN)NC(=O)CNC(=O)[C@H](Cc3ccccc3)NC(=O)[C@H]([C@@H](C)CC)NC(=O)[C@H](CO)NC(=O)CNC(=O)[C@H]([C@@H](C)CC)NC(=O)[C@H](C)NC(=O)[C@H](C)NC(=O)[C@H](CC(C)C)NC(=O)[C@@H]3CSSC[C@@H](C(=O)N[C@@H](Cc4ccc(O)cc4)C(=O)N4CCC[C@H]4C(=O)N[C@@H](CCCNC(=N)N)C(=O)O)NC(=O)[C@H](CCCCN)NC(=O)[C@H](CSSC[C@H](NC(=O)[C@H](CCC(=O)O)NC(=O)[C@H](C(C)C)NC(=O)[C@H](CO)NC(=O)[C@H](C)NC(=O)[C@H](CO)NC1=O)C(=O)N[C@@H](CCCCN)C(=O)N[C@@H](CCC(N)=O)C(=O)N[C@@H](CCCCN)C(=O)N3)NC(=O)[C@H](CCCCN)NC(=O)[C@H](CCCCN)NC(=O)[C@H](CC(N)=O)NC(=O)[C@H](CCCC)NC2=O [Compound 97] (H-P[Nle]E[Nle]RCSASVECKQKCLAAIGSIFGKC[Nle]NKKCKCYPR-OH; disulfide 6-27, 12-32, 16-34) | ≤ 0.15 nM | at least 1000 | at least 400
CCCC[C@@H]1NC(=O)[C@@H]2CSSC[C@H](N)C(=O)N[C@@H](CO)C(=O)N[C@@H](C)C(=O)N[C@@H](CO)C(=O)N[C@@H](C(C)C)C(=O)N[C@@H](CCC(=O)O)C(=O)N[C@H]3CSSC[C@H](NC(=O)[C@H](CCCCN)NC(=O)[C@H](CCCCN)NC(=O)[C@H](CC(N)=O)NC1=O)C(=O)N[C@@H](CCCCN)C(=O)N[C@H](C(=O)N[C@@H](Cc1ccc(O)cc1)C(=O)N1CCC[C@H]1C(=O)N[C@@H](CCCNC(=N)N)C(N)=O)CSSC[C@H](NC(=O)[C@H](CCCCN)NC(=O)[C@H](CCC(N)=O)NC(=O)[C@H](CCCCN)NC3=O)C(=O)N[C@@H](CC(C)C)C(=O)N[C@@H](CCCCN)C(=O)N[C@@H](C)C(=O)N[C@@H]([C@@H](C)CC)C(=O)NCC(=O)N[C@@H](CO)C(=O)N[C@@H]([C@@H](C)CC)C(=O)N[C@@H](Cc1ccccc1)C(=O)NCC(=O)N[C@@H](CCCCN)C(=O)N2 [Compound 104] (H-CSASVECKQKCLKAIGSIFGKC[Nle]NKKCKCYPR-NH2; disulfide 1-22, 7-27, 11-29) | ≤ 0.15 nM | at least 1000 | at least 400
